No constants are given. Whether binding was seen depends on the method and setting. In cells and extracts the contact can be indirect. Here binding means that the protein was enriched with, or labelled near, the bait; the list need not be complete.
B1: MLF2 (protein, UniProt Q15773 1-248)
chain: MFRFMRDVEPEDPMFLMDPFAIHRQHMSRMLSGGFGYSPFLSITDGNMPGTRPASRRMQQAGAVSPFGMLGMSGGFMDMFGMMNDMIGNMEHMTAGGNCQTFSSSTVISYSNTGDGAPKVYQETSEMRSAPGGIRETRRTVRDSDSGLEQMSIGHHIRDRAHILQRSRNHRTGDQEERQDYINLDESEAAAFDDEWRRETSRFRQQRPLEFRRLESSGAGGRRAEGPPRLAIQGPEDSPSRQSRRYDW
B2: PRKRA (protein, UniProt O75569 1-313)
chain: MSQSRHRAEAPPLEREDSGTFSLGKMITAKPGKTPIQVLHEYGMKTKNIPVYECERSDVQIHVPTFTFRVTVGDITCTGEGTSKKLAKHRAAEAAINILKANASICFAVPDPLMPDPSKQPKNQLNPIGSLQELAIHHGWRLPEYTLSQEGGPAHKREYTTICRLESFMETGKGASKKQAKRNAAEKFLAKFSNISPENHISLTNVVGHSLGCTWHSLRNSPGEKINLLKRSLLSIPNTDYIQLLSEIAKEQGFNITYLDIDELSANGQYQCLAELSTSPITVCHGSGISCGNAQSDAAHNALQYLKIIAERK
B3: MORC2 (protein, UniProt Q9Y6X9 1-1032)
chain: MAFTNYSSLNRAQLTFEYLHTNSTTHEFLFGALAELVDNARDADATRIDIYAERREDLRGGFMLCFLDDGAGMDPSDAASVIQFGKSAKRTPESTQIGQYGNGLKSGSMRIGKDFILFTKKEDTMTCLFLSRTFHEEEGIDEVIVPLPTWNARTREPVTDNVEKFAIETELIYKYSPFRTEEEVMTQFMKIPGDSGTLVIIFNLKLMDNGEPELDIISNPRDIQMAETSPEGTKPERRSFRAYAAVLYIDPRMRIFIHGHKVQTKRLSCCLYKPRMYKYTSSRFKTRAEQEVKKAEHVARIAEEKAREAESKARTLEVRLGGDLTRDSRVMLRQVQNRAITLRREADVKKRIKEAKQRALKEPKELNFVFGVNIEHRDLDGMFIYNCSRLIKMYEKVGPQLEGGMACGGVVGVVDVPYLVLEPTHNKQDFADAKEYRHLLRAMGEHLAQYWKDIAIAQRGIIKFWDEFGYLSANWNQPPSSELRYKRRRAMEIPTTIQCDLCLKWRTLPFQLSSVEKDYPDTWVCSMNPDPEQDRCEASEQKQKVPLGTFRKDMKTQEEKQKQLTEKIRQQQEKLEALQKTTPIRSQADLKKLPLEVTTRPSTEEPVRRPQRPRSPPLPAVIRNAPSRPPSLPTPRPASQPRKAPVISSTPKLPALAAREEASTSRLLQPPEAPRKPANTLVKTASRPAPLVQQLSPSLLPNSKSPREVPSPKVIKTPVVKKTESPIKLSPATPSRKRSVAVSDEEEVEEEAERRKERCKRGRFVVKEEKKDSNELSDSAGEEDSADLKRAQKDKGLHVEVRVNREWYTGRVTAVEVGKHVVRWKVKFDYVPTDTTPRDRWVEKGSEDVRLMKPPSPEHQSLDTQQEGGEEEVGPVAQQAIAVAEPSTSECLRIEPDTTALSTNHETIDLLVQILRNCLRYFLPPSFPISKKQLSAMNSDELISFPLKEYFKQYEVGLQNLCNSYQSRADSRAKASEESLRTSERKLRETEEKLQKLRTNIVALLQKVQEDIDINTDDELDAYIEDLITKGD
B4: THRAP3 (protein, UniProt Q9Y2W1 1-955)
chain: MSKTNKSKSGSRSSRSRSASRSRSRSFSKSRSRSRSLSRSRKRRLSSRSRSRSYSPAHNRERNHPRVYQNRDFRGHNRGYRRPYYFRGRNRGFYPWGQYNRGGYGNYRSNWQNYRQAYSPRRGRSRSRSPKRRSPSPRSRSHSRNSDKSSSDRSRRSSSSRSSSNHSRVESSKRKSAKEKKSSSKDSRPSQAAGDNQGDEAKEQTFSGGTSQDTKASESSKPWPDATYGTGSASRASAVSELSPRERSPALKSPLQSVVVRRRSPRPSPVPKPSPPLSSTSQMGSTLPSGAGYQSGTHQGQFDHGSGSLSPSKKSPVGKSPPSTGSTYGSSQKEESAASGGAAYTKRYLEEQKTENGKDKEQKQTNTDKEKIKEKGSFSDTGLGDGKMKSDSFAPKTDSEKPFRGSQSPKRYKLRDDFEKKMADFHKEEMDDQDKDKAKGRKESEFDDEPKFMSKVIGANKNQEEEKSGKWEGLVYAPPGKEKQRKTEELEEESFPERSKKEDRGKRSEGGHRGFVPEKNFRVTAYKAVQEKSSSPPPRKTSESRDKLGAKGDFPTGKSSFSITREAQVNVRMDSFDEDLARPSGLLAQERKLCRDLVHSNKKEQEFRSIFQHIQSAQSQRSPSELFAQHIVTIVHHVKEHHFGSSGMTLHERFTKYLKRGTEQEAAKNKKSPEIHRRIDISPSTFRKHGLAHDEMKSPREPGYKAEGKYKDDPVDLRLDIERRKKHKERDLKRGKSRESVDSRDSSHSRERSAEKTEKTHKGSKKQKKHRRARDRSRSSSSSSQSSHSYKAEEYTEETEEREESTTGFDKSRLGTKDFVGPSERGGGRARGTFQFRARGRGWGRGNYSGNNNNNSNNDFQKRNREEEWDPEYTPKSKKYYLHDDREGEGSDKWVSRGRGRGAFPRGRGRFMFRKSSTSPKWAHDKFSGEEGEIEDDESGTENREEKDNIQPTTE
B5: SNW1 (protein, UniProt Q13573 1-536)
chain: MALTSFLPAPTQLSQDQLEAEEKARSQRSRQTSLVSSRREPPPYGYRKGWIPRLLEDFGDGGAFPEIHVAQYPLDMGRKKKMSNALAIQVDSEGKIKYDAIARQGQSKDKVIYSKYTDLVPKEVMNADDPDLQRPDEEAIKEITEKTRVALEKSVSQKVAAAMPVRAADKLAPAQYIRYTPSQQGVAFNSGAKQRVIRMVEMQKDPMEPPRFKINKKIPRGPPSPPAPVMHSPSRKMTVKEQQEWKIPPCISNWKNAKGYTIPLDKRLAADGRGLQTVHINENFAKLAEALYIADRKAREAVEMRAQVERKMAQKEKEKHEEKLREMAQKARERRAGIKTHVEKEDGEARERDEIRHDRRKERQHDRNLSRAAPDKRSKLQRNENRDISEVIALGVPNPRTSNEVQYDQRLFNQSKGMDSGFAGGEDEIYNVYDQAWRGGKDMAQSIYRPSKNLDKDMYGDDLEARIKTNRFVPDKEFSGSDRRQRGREGPVQFEEDPFGLDKFLEEAKQHGGSKRPSDSSRPKEHEHEGKKRRKE

These binders were tested against LINE-1 encoded ORF1p (human) (human (endogenous in LUHMES)) (assay: affinity purification with mass spectrometry).

| binding | Binder |
| --- | --- |
| binds | B1 |
| binds | B2 |
| binds | B3 |
| binds | B4 |
| binds | B5 |

Reference: paper doi:10.1101/2025.09.05.674414
